Test results reported in PubChem BioAssay AID493200 (National Center for Advancing Translational Sciences (NCATS), 2011).
Inconclusive means that the source gave no clear call. Potencies beside an inconclusive call are fits to weak or partial responses and may not hold up.

Assay: qHTS Assay for Rab9 Promoter Activators: Initial hit validation from the primary screen
Conditions: Huh7 Rab9 promoter luciferase reporter, 24 h; active means well fitted activation curve with a large enough effect; inconclusive means small, poorly fitted or top-dose-only effect; inactive means no such curve, though single readings can be large or run the other way
From the text: NIH Chemical Genomics Center [NCGC] NIH Molecular Libraries Probe Production centers Network [MLPCN] MLPCN Grant: MH089537-01 Assay Submitter (PI): Yiannis A. Ioannou NCGC Assay Overview: Niemann Pick Type C (NPC) is a rare neurodegenerative lipidosis that is characterized by lipid storage in the endosomal/lysosomal system. Treatment modalities for this devastating disease are currently non-existent due to the severe obstacles associated with accessing the central nervous system with proteins or genes (Ioannou, 2000). We have developed a new paradigm, termed "Orphan Receptor Bypass Therapy" (ORByT), to address these disorders. This paradigm posits the existence of endogenous "suppressor" proteins whose expression can dramatically improve LSD pathogenesis. The goal is the identification/discovery of small chemical compounds that can modulate the expression of these proteins and provide a new treatment modality for these devastating disorders. One such protein whose overexpression reverses aspects of the NPC phenotype is Rab9. […]
The Rab9 promoter is cloned in front of the luciferase reporter gene, therefore […] promoter activation results in luciferase expression. […] 7.Read using the luminescence protocol on the ViewLux plate reader (Perkin Elmer).
Potency means the concentration at half of the fitted maximal effect.

Question: Which Potency does the source give for `Cc1ccc(NC(=O)Nc2cccc3ccccc23)cc1` here?
Answer: Its Potency is inconclusive: 158 µM [activator, partial curve].
